Results are given in words; binding and its absence hold for the method and conditions named. Binding seen in cells or lysates may run through a third protein. A yes stands for co-enrichment or nearness to the bait. Other partners may have been found.

For this experiment, the target named is YELLOW, SERRATED LEAF (YSL)-His fusion protein (Arabidopsis thaliana). In words: affinity purification with mass spectrometry; YSL-His from E. coli purified by His magnetic beads; interacting proteins pulled down from the total protein of Arabidopsis plants; mass spectrometry; only the target purified.

B1: VH1-interacting kinase (VIK), endogenous (protein, UniProt Q9XI87 1-438)
chain: MSSDSPAAGDGGEQAAAGTSVPSPSYDKQKEKARVSRTSLILWHAHQNDAAAVRKLLEEDPTLVHARDYDKRTPLHVASLHGWIDVVKCLLEFGADVNAQDRWKNTPLADAEGARKQKMIELLKSHGGLSYGQNGSHFEPKPVPPPIPKKCDWEIEPAELDFSNAAMIGKGSFGEIVKAYWRGTPVAVKRILPSLSDDRLVIQDFRHEVDLLVKLRHPNIVQFLGAVTERKPLMLITEYLRGGDLHQYLKEKGGLTPTTAVNFALDIARGMTYLHNEPNVIIHRDLKPRNVLLVNSSADHLKVGDFGLSKLIKVQNSHDVYKMTGETGSYRYMAPEVFKHRRYDKKVDVFSFAMILYEMLEGEPPFANHEPYEAAKHVSDGHRPTFRSKGCTPDLRELIVKCWDADMNQRPSFLDILKRLEKIKETLPSDHHWGLFTS
Take B1: the binding result is on record as “binds”.

These data come from publication PMC11637768.
